Among the data in paper PMC10576442 are binding values, retold here.

Protein sequences, listed by entry. Tags and fused reporters are not part of them.
UniProt Q13616: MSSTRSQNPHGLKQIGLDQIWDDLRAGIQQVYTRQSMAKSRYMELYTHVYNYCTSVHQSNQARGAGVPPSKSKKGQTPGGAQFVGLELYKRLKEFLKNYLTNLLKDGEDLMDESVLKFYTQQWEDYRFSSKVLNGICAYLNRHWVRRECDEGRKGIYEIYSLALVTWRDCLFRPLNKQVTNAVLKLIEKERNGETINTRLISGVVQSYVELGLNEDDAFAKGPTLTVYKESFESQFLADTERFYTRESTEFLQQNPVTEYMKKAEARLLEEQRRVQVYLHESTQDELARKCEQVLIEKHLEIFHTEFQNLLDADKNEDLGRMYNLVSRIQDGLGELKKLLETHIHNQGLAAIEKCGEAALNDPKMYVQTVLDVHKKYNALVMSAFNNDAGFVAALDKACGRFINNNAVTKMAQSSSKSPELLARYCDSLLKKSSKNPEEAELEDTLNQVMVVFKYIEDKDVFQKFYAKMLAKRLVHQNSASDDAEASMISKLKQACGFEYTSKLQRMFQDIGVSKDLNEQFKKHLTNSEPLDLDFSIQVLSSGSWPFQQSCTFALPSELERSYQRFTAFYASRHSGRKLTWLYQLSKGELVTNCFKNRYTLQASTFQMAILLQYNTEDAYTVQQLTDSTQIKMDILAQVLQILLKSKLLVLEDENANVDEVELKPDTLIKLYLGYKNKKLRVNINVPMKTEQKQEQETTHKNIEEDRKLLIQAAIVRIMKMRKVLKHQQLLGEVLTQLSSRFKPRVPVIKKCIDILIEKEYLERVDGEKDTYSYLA

For one experiment, the target named is Cullin-1 (CUL1) (UniProt Q13616). Kind of experiment: co-IP; immunoprecipitation with CUL1 antibody, western blot of F-box proteins; control cells, CAND1 knock-down and CAND1 overexpression (Figure 4H, S6A, S6B). On the technique in general: Immunoblotting shows a protein as a band on a membrane.
Experiment [1] addresses T1, FBXO11 (as used with the hnRNPA2B1 truncations and the CUL1 truncations) (UniProt Q86XK2).
T1 sequence: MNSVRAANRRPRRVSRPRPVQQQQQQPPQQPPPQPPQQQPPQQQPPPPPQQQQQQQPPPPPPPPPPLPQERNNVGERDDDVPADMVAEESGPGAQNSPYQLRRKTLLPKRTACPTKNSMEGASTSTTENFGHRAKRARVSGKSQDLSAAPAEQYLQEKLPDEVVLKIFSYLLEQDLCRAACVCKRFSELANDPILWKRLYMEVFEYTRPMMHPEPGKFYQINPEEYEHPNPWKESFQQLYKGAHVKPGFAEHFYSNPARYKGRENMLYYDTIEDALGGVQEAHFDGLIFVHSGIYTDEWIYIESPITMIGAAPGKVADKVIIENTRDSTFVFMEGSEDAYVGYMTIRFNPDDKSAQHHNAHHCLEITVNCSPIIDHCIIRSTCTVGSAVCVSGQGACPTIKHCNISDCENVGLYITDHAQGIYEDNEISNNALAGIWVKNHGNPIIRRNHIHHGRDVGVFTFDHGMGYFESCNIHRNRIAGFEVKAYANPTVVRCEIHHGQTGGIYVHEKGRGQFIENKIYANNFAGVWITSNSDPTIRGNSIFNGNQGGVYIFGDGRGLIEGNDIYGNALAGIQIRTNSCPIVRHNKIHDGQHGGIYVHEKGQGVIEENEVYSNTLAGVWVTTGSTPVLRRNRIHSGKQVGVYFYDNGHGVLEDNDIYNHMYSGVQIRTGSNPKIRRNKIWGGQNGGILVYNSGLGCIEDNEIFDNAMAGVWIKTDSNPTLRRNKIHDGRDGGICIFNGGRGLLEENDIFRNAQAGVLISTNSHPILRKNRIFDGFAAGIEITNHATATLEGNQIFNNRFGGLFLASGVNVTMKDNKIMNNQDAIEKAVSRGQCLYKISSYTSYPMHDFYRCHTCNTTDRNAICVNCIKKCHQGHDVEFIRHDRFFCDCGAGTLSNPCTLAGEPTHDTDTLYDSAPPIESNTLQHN
Kind of experiment: co-IP; FBXO11 with Flag-tagged hnRNPA2B1 and its truncated forms (Figure 7G).

Results are given in words; binding and its absence hold for the method and conditions named. In cells and extracts the contact can be indirect. Some entries that bind do so weakly or less than the wild type. For some assays here: Tags and fused reporters may be left off the sequences shown.

B1: F-box protein 11 (FBXO11) (protein, UniProt Q86XK2 1-927)
chain: MNSVRAANRRPRRVSRPRPVQQQQQQPPQQPPPQPPQQQPPQQQPPPPPQQQQQQQPPPPPPPPPPLPQERNNVGERDDDVPADMVAEESGPGAQNSPYQLRRKTLLPKRTACPTKNSMEGASTSTTENFGHRAKRARVSGKSQDLSAAPAEQYLQEKLPDEVVLKIFSYLLEQDLCRAACVCKRFSELANDPILWKRLYMEVFEYTRPMMHPEPGKFYQINPEEYEHPNPWKESFQQLYKGAHVKPGFAEHFYSNPARYKGRENMLYYDTIEDALGGVQEAHFDGLIFVHSGIYTDEWIYIESPITMIGAAPGKVADKVIIENTRDSTFVFMEGSEDAYVGYMTIRFNPDDKSAQHHNAHHCLEITVNCSPIIDHCIIRSTCTVGSAVCVSGQGACPTIKHCNISDCENVGLYITDHAQGIYEDNEISNNALAGIWVKNHGNPIIRRNHIHHGRDVGVFTFDHGMGYFESCNIHRNRIAGFEVKAYANPTVVRCEIHHGQTGGIYVHEKGRGQFIENKIYANNFAGVWITSNSDPTIRGNSIFNGNQGGVYIFGDGRGLIEGNDIYGNALAGIQIRTNSCPIVRHNKIHDGQHGGIYVHEKGQGVIEENEVYSNTLAGVWVTTGSTPVLRRNRIHSGKQVGVYFYDNGHGVLEDNDIYNHMYSGVQIRTGSNPKIRRNKIWGGQNGGILVYNSGLGCIEDNEIFDNAMAGVWIKTDSNPTLRRNKIHDGRDGGICIFNGGRGLLEENDIFRNAQAGVLISTNSHPILRKNRIFDGFAAGIEITNHATATLEGNQIFNNRFGGLFLASGVNVTMKDNKIMNNQDAIEKAVSRGQCLYKISSYTSYPMHDFYRCHTCNTTDRNAICVNCIKKCHQGHDVEFIRHDRFFCDCGAGTLSNPCTLAGEPTHDTDTLYDSAPPIESNTLQHN
Consider B1, for which the binding entry with Cullin-1 (CUL1) is “binds”.

B2: Flag-tagged hnRNPA2B1 truncation: a segment of 81 amino acids in the RRM_2 region (domain or fragment, UniProt P22626 112-191)
chain: KKLFVGGIKEDTEEHHLRDYFEEYGKIDTIEIITDRQSGKKRGFGFVTFDDHDPVDKIVLQKYHTINGHNAEVRKALSRQ
Regarding B2, the binding result in experiment [1] is “binds”.
